Source: PubChem BioAssay AID743255 (National Center for Advancing Translational Sciences (NCATS), 2014)
Values joined by “and” are separate entries in the source; they are usually repeats but may differ in a detail not shown here. Equal values may be shown once. In all, about 390,000 compounds went through this assay and about 910 (0.23%) were called active. This list was built around the results that the source calls inconclusive (neither active nor inactive); the mix of calls is not that of the screen. Calls follow the shape of the dose curve; as a rule, active = well fitted inhibition curve with a large enough effect; inconclusive = small, poorly fitted or top-dose-only effect; inactive = no such curve, though single readings can be large or run the other way. A potency beside an inconclusive call is a rough fit, not a confirmed value.

Sequences of proteins named here, by UniProt entry; tags and fusion partners are left off. A change or cut given only in a name is not applied to a line headed by its entry.
UniProt O94782: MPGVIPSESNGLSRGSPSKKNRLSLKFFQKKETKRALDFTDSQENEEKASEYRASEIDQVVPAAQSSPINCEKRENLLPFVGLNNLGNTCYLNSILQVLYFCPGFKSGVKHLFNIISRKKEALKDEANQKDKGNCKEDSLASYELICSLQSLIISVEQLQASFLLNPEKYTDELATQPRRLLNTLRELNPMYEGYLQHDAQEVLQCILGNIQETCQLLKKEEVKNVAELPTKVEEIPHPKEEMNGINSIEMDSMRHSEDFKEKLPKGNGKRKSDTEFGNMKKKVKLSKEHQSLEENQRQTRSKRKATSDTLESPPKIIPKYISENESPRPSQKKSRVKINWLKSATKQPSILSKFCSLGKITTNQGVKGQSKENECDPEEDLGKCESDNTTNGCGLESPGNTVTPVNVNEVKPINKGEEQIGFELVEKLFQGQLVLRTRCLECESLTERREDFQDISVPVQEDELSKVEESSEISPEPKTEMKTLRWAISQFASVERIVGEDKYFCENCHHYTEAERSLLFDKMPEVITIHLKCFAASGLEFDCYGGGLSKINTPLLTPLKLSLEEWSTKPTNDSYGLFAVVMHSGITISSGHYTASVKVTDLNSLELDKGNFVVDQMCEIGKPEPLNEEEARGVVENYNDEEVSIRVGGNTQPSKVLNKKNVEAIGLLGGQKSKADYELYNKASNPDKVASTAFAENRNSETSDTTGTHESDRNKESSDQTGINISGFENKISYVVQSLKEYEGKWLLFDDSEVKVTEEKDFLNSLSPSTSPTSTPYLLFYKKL

Each compound was assayed against Ubiquitin carboxyl-terminal hydrolase 1 (Homo sapiens) (UniProt O94782) (assay: Inhibitors of USP1/UAF1: Primary Screen). Details: recombinant USP1/UAF1, Ub-Rhodamine cleavage fluorescence; activity change, negative = inhibition: at 57.1 µM (top of the series).
Outline: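 Step one: compound is pinned into 1nM USP1/UAF1 in HEPES pH 7.8 buffer with TCEP. Step two: 15 min room-temperature incubation. Step three: Ub-Rho (150nM final) starts cleavage, tracked by fluorescence over six one-minute reads.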
% is scaled to controls: 0 for no effect and ±100 for the full control effect; potency is read from the fitted curve at half-maximal effect.
Also: nearly all actives have a fitted effect of over 60% in size.

SMILES	Potency	activity change, negative = inhibition
Cc1cc(N2CCCC2)ccc1/C=C1/C(=O)N(C)C(=S)N1C	inconclusive: 14.1 µM [inhibitor, partial curve]	–
CCOc1ccccc1N=Nc1c(C)[nH]n(C(N)=S)c1=O	inconclusive: 44.7 µM [inhibitor, partial curve, poor fit]	–
CCOc1ccccc1CC1C(=O)Nc2ccc(Br)cc21 (configuration not stated)	inconclusive: 35.5 µM [inhibitor, partial curve, poor fit]	–
COc1ccc(OC)c(NC(=O)c2ccc3c(c2)C(=O)N(CC2CCCO2)C3=O)c1 (configuration not stated)	inconclusive: 2.51 µM [inhibitor, partial curve]	–
Cc1cc(C)n(-c2ccc(NC(=O)C3CCN(Cc4ccccn4)CC3)cc2)n1	–	inactive: -6.55%
Cc1cc(C2=NNC(=NC3CC3)SC2)c(C)n1-c1ccccc1F	–	inactive: -14.2%
COc1ccccc1NC(=O)C(=O)N1N=C(C(C)C)CC1(O)C(F)(F)F (configuration not stated)	inconclusive: 0.794 µM [inhibitor, full curve, poor fit]	–
CCOC(=O)/C(=N/Nc1ccc(OC)cc1)Sc1nnc(CCc2ccccc2)n1-c1ccccc1	–	inactive: -14%
CC1=NN(c2ccccc2)C(=O)/C1=C/C=C/C=C/N(C)C	inconclusive: 31.6 µM [inhibitor, partial curve]	–
COc1ccc(OC)c(C(C)NC(=O)Cn2c(=O)cc(C)c3c(C)nn(-c4ccc(C)cc4)c32)c1 (configuration not stated)	–	inactive: -16.2%
COC(=O)c1ccccc1NC(=O)CCS(=O)(=O)c1ccc(Br)cc1	inconclusive: 50.1 µM [inhibitor, partial curve, poor fit]	–
O=C(N=Nc1c(O)n(Cc2ccccc2)c2ccccc12)c1ccncc1	–	inactive: -21.6%
O=C(NCc1ccc(Cl)cc1)C1CCCN(c2nc3ccccc3n3cccc23)C1 (configuration not stated)	inconclusive: 31.6 µM [inhibitor, partial curve]	–
CCN(c1ccc(OC)cc1)S(=O)(=O)c1ccc2[nH]c(=O)ccc2c1	–	inactive: -5.45%
CCOC(=O)C1=C(Cc2ccc(OC)cc2)C(=O)c2ccccc2C1=O	inconclusive: 14.1 µM [inhibitor, partial curve]	–
CSc1nc(C)cc(C)c1C#N	–	inactive: -16.8%
O=C(/C=C/c1ccc(Br)o1)OCc1nc2ccsc2c(=O)[nH]1	inconclusive: 50.1 µM [inhibitor, single point]	–
CC(c1nccs1)N(C)C(=O)c1ccc(OC2CCN(CCc3ccccc3)CC2)cc1 (configuration not stated)	–	inactive: -4.28%
Cc1ccc2nc(-c3ccc(NS(=O)(=O)c4ccc(F)cc4)cc3)sc2c1	inconclusive: 31.6 µM [inhibitor, partial curve]	–
O=C(Nc1cccc(Cl)c1)c1cnc[nH]1	inactive	–
O=C(Nc1ccccc1)c1ccc(Br)c(S(=O)(=O)N2CCCCC2)c1	–	inactive: -13.7%
CN(Cc1ccccc1)c1ncnc2onc(-c3ccc(F)cc3)c12	inconclusive: 7.08 µM [inhibitor, full curve, poor fit]	–
Cc1ccc(OCCn2c(=S)[nH]c3ccccc32)c(C(C)C)c1	inconclusive: 50.1 µM [inhibitor, partial curve, poor fit]	–

SMILES	Potency	activity change, negative = inhibition
Cc1ccc(NC(=O)CSc2nc(O)cc(=O)n2-c2ccc(C)cc2)cc1	–	inactive: -16.3%
Cc1cc(C)nc(NC2=N[C@@H]3CCCC[C@H]3N2C(=O)Nc2cc(Cl)cc(Cl)c2)n1	inconclusive: 50.1 µM [inhibitor, partial curve, poor fit]	–
COC(=O)c1cc2sccc2n1Cc1nc(-c2ccc(Cl)cc2)oc1C	inconclusive: 6.31 µM [inhibitor, partial curve]	–
CCc1ccccc1NC(=O)c1ccc2c(c1)N(Cc1cc(C)ccc1C)C(=O)c1ccccc1S2(=O)=O	–	inactive: -21.2%
COc1cccc(C(c2c(O)cc(C)n(Cc3ccco3)c2=O)N2CCN(c3ccccc3)CC2)c1 (configuration not stated)	inconclusive: 200 µM [inhibitor, partial curve, poor fit]	–
CCN1C(=O)C(CC(=O)Nc2ccc(F)cc2)N(Cc2ccco2)C1=S (configuration not stated)	–	inactive: -8.47%
O=C(Cc1csc(NC(=O)Nc2cccc(Cl)c2)n1)NCc1cccnc1	inconclusive: 7.94 µM [inhibitor, full curve]	–
CCOc1c2ccc(C(=O)NCc3ccc(C)cc3)cc2nn1CC	inconclusive: 50.1 µM [inhibitor, partial curve, poor fit]	–
CSCCC1(C(=O)O)NC(c2ccccc2O)C2C(=O)N(C(C)C)C(=O)C21 (configuration not stated)	inconclusive: 0.398 µM [inhibitor, full curve]	–
O=C(Nc1ccccc1)N1CCN(Cc2ccc3c(c2)OCO3)CC1	inconclusive: 35.5 µM [inhibitor, partial curve]	–
O=C(COc1ccc(F)cc1Br)Nc1ccccc1N1CCCC1	–	inactive: -22.2%
COc1ccc(OC)c(C2CC(=O)N3CN(c4ccc(C)c(Cl)c4)CSC3=C2C#N)c1 (configuration not stated)	inconclusive: 100 µM [inhibitor, partial curve, poor fit]	–
COc1ccc(NC(=O)c2ccc(-c3ccc(F)cc3)o2)cc1OC	inconclusive: 15.8 µM [inhibitor, partial curve]	–
CCCCN1C(=O)/C(=C/C=C2/CC(C)(C)CN2C)SC1=S	active: 22.4 µM	–
COCCNC(=O)Cc1c(C)c2c(cc(C)c3c(C(C)(C)C)coc32)oc1=O	inconclusive: 0.891 µM [inhibitor, full curve, poor fit]	–
CCOc1ccc(NC(=S)N2CCC(NC(=O)C3CCCCC3)CC2)cc1	inconclusive: 6.31 µM [inhibitor, single point]	–
Cc1ccc(S(=O)(=O)N2[C@@H](c3ccc(C(C)(C)C)cc3)C(C(=O)O)=CC[C@H]2c2cccc(Cl)c2)cc1	inconclusive: 44.7 µM [inhibitor, partial curve, poor fit]	–
COCCCNC(=O)c1ccc2c(=O)n(Cc3ccc(OC)cc3)c(=O)[nH]c2c1	inconclusive: 0.355 µM [inhibitor, full curve, poor fit]	–
C=CCOC(=O)C1=C[C@H](c2ccc(C(F)(F)F)cc2)C[C@H](OCCCCO)O1	inconclusive: 3.55 µM [inhibitor, partial curve]	–
O=C(NC1CCCC1)c1cccc2c1C(=O)c1ccc(N3CCCCC3)cc1S2(=O)=O	inconclusive: 15.8 µM [inhibitor, partial curve]	–
C#CCOCCOCCOCCNc1nc(N2CCN(C(=O)[C@H](CCCCN)n3cc(CN)nn3)CC2)nc(N2CCN(C(=O)[C@H](CCCCN)n3cc([C@@H](N)[C@H](C)CC)nn3)CC2)n1	inconclusive: 0.282 µM [inhibitor, full curve, poor fit]	–
CCOc1cc(-c2nc(-c3ccc(Br)cc3)no2)cc(OCC)c1OCC	–	inactive: 9.07%
Cc1cccc(NC(=O)CN(C)S(=O)(=O)c2cccs2)c1	inconclusive: 0.562 µM [inhibitor, full curve, poor fit]	–

In another format: entries from further up.
O=C(Nc1ccccc1)N1CCN(Cc2ccc3c(c2)OCO3)CC1
  Potency: inconclusive: 35.5 µM [inhibitor, partial curve]
O=C(COc1ccc(F)cc1Br)Nc1ccccc1N1CCCC1
  activity change, negative = inhibition: inactive: -22.2%

The list goes on.

SMILES	Potency	activity change, negative = inhibition
COc1cc2cc(CCOC(=O)c3ccc(F)cc3)oc(=O)c2cc1OC	inconclusive: 2.24 µM [inhibitor, full curve]	–
Cc1ccc(N(C(=O)CNC(=O)c2ccco2)C(C(=O)NC2CCCC2)c2cccnc2)c(C)c1 (configuration not stated)	inconclusive: 63.1 µM [inhibitor, single point]	–
O=C(C1CCCN(S(=O)(=O)c2ccc(Br)s2)C1)N1CCN(c2ccccc2)CC1 (configuration not stated)	inconclusive: 31.6 µM [inhibitor, partial curve, poor fit]	–
COc1cc(NC(=O)c2cnc(N)s2)cc(C(=O)Nc2cccc(C(F)(F)F)c2)c1	inactive	–
CCOc1ccc(-c2nc3c(c(SCC(=O)N4CCCCC4)n2)Cc2ccccc2O3)cc1	inconclusive: 5.01 µM [inhibitor, partial curve]	–
CCn1nccc1C(=O)Nc1ccc(Cl)cn1	–	inactive: -3.32%
O=c1c(N2CCc3ccccc3C2)csc2ccccc12	–	inactive: -9.53%
O=C(O)c1cccc(-n2c(-c3cnccn3)n[nH]c2=S)c1	inconclusive: 4.47 µM [inhibitor, single point]	–
COc1cccc(NC(=O)CC(C)S(=O)(=O)c2ccc3c(c2)NC(=O)CO3)c1 (configuration not stated)	inconclusive: 3.98 µM [inhibitor, partial curve]	–
CCOc1ccccc1NS(=O)(=O)c1ccc(-c2cnc(C3CC3)o2)cc1	inactive and inconclusive: 31.6 µM [inhibitor, partial curve, poor fit]	–
Cn1c(NCc2ccc(Cl)cc2)nc2ccccc21	inconclusive: 7.08 µM [inhibitor, full curve, poor fit]	–
Cc1ccc(S(=O)c2ccc(NC(=O)C3CC3)cc2C#N)cc1 (configuration not stated)	–	inactive: -4.09%
O=C(Nc1nnc(S(=O)(=O)Nc2ccccc2)s1)c1ccccc1Cl	inactive	–
O=[N+]([O-])/C=C/c1cn(Cc2ccc(Cl)cc2)c2ccccc12	inconclusive: 44.7 µM [inhibitor, partial curve, poor fit]	–
CCCN1C[C@H](CSC)C[C@@H]2c3cccc4[nH]cc(c34)C[C@H]21	–	inactive: -19.3%
Cc1ccc(NC(=O)CN2C(=O)C3(SCC(=O)N3c3cccc(Cl)c3)c3ccccc32)cc1C (configuration not stated)	–	inactive: -20.3%
COC(=O)[C@H]1[C@H]2C[C@H]3c4[nH]c5ccccc5c4CCN3C[C@@H]2CC[C@@H]1O	inconclusive: 35.5 µM [inhibitor, partial curve]	–
COc1ccc(/C=C/c2ccncc2)cc1	–	inactive: -10.7%
O=C(NC(=S)NNC(=O)c1ccccc1[N+](=O)[O-])c1ccc(Br)cc1	–	inactive: -24.9%
COc1ccc2c(c1OC)C(=O)OC2C1c2c(cc3c(c2OC)OCO3)CCN1C (configuration not stated)	inactive	–
COc1cc(-c2[nH]ncc2CN2CCN(c3cccc(C)n3)CC2)cc(OC)c1OC	inconclusive: 28.2 µM [inhibitor, partial curve]	–
